# Data as given in the supplement of paper PMC12067093, “Discovery and optimisation of a covalent ligand for TRIM25 and its application to targeted protein ubiquitination” (Chemical Science, 2025).
# Some of the results follow.
# Compound: Cc1cc(ccc1-c1ccccc1)C(=O)N1CCCN(CC1)C(=O)CCl [compound 10]
# Assay: probe-labelled cysteine peptide fold change vs DMSO (competition) (log2 fold change); higher = less target engagement (more negative = stronger competition)
# Details: THP-1, incubation time: 4 h
# 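Further: competitive profiling in live THP-1 cells: cysteine peptides tagged with an iodoacetamide desthiobiotin (IA-DTB) probe, intensity after compound treatment relative to DMSO-treated cells.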
Target,probe-labelled cysteine peptide fold change (10 µM),probe-labelled cysteine peptide fold change (50 µM)
CMSS1_Q9BQ75_55_ECFLIQPK (UniProt Q9BQ75),0.238,-0.0333
CNBP_P62633_77_DCDLQEDACYNCGR (UniProt P62633),0.0547,0.01
CNP_P09543_111_LDEDLAAYCR (UniProt P09543),0.132,0.0616
CNPY2_Q9Y2B0_86_SEAHLTELLEEICDR (UniProt Q9Y2B0),-0.396,0.301
COLGALT1_Q8NBJ5_283_QAEVQMYVCNKEEYGFLPVPLR (UniProt Q8NBJ5),0.0375,-0.273
COA7_Q96BR5_187_ACDLGHIWACANASR (UniProt Q96BR5),0.0578,0.0556
CNOT10_Q9H9A5_665_CLHQAASMIHPK (UniProt Q9H9A5),0.047,0.0414
CORO1A_P31146_285_HLEEPLSLQELDTSSGVLLPFFDPDTNIVYLCGK (UniProt P31146),-0.137,0.22
CNOT10_Q9H9A5_504_NSNQLGGNTESSESSETCSSK (UniProt Q9H9A5),-0.17,-0.347
COG7_P83436_505_YLSDSCSPR (UniProt P83436),-0.224,-0.235
COPG1_Q9Y678_129_ALCQITDSTMLQAIER (UniProt Q9Y678),-0.0807,-0.0799
CNBP_P62633_119_CYSCGEFGHIQK (UniProt P62633),0.115,0.0151
COQ8A_Q8NI60_406_RELALECDYQR (UniProt Q8NI60),0.00187,0.00657
COMMD9_Q9P000_47_LLDVTCSSLSVTQEEAEELLQALHR (UniProt Q9P000),0.208,0.364
CNN2_Q99439_164_AGQCVIGLQMGTNK (UniProt Q99439),0.136,-0.263
COPS5_Q92905_218_IEDFGVHCK (UniProt Q92905),-0.0765,0.0276
CNTRL_Q7Z7A1_1535_DSDFQCLSK (UniProt Q7Z7A1),-0.0189,-0.45

Target,probe-labelled cysteine peptide fold change (10 µM),probe-labelled cysteine peptide fold change (50 µM)
CNBP_P62633_111_DCDHADEQK (UniProt P62633),0.221,0.256
COPS7B_Q9H9Q2_181_TLHEWCDGCEAVLLGIEQQVLR (UniProt Q9H9Q2),-0.0109,-0.138
CORO1A_P31146_192+195_DGGLICTSCR (UniProt P31146),-0.144,-0.557
CNBP_P62633_101_EQCCYNCGKPGHLAR (UniProt P62633),0.0237,-0.268
CNTRL_Q7Z7A1_639_GQATQAQNECR (UniProt Q7Z7A1),0.289,0.286
CNBP_P62633_98_EQCCYNCGKPGHLAR (UniProt P62633),0.0498,-0.421
CNOT6L_Q96LI5_283_HVDGCAIFFK (UniProt Q96LI5),0.0588,0.271
CNOT1_A5YKK6_420_HAEGQLSFIQHSLINPEIFCFADYPCHTVATDILK (UniProt A5YKK6),0.0642,0.0353
CNBP_P62633_171_ECTIEATA (UniProt P62633),-0.182,0.15
COMT_P21964_241_GSSCFECTHYQSFLEYR (UniProt P21964),0.0648,-0.0597
CNOT4_O95628_175_AIQCVNNVVVDGR (UniProt O95628),-0.0308,-0.303
CNBP_P62633_158_TSEVNCYR (UniProt P62633),-0.0156,-0.198
COG6_Q9Y2V7_234_WAQSECR (UniProt Q9Y2V7),-0.0733,-0.125
COPB1_P53618_248_CIYNLLQSSSPAVKYEAAGTLVTLSSAPTAIK (UniProt P53618),0.0928,0.0416
COLEC10_Q9Y6Z7_121_AGTVCDCGR (UniProt Q9Y6Z7),-0.373,-0.191
CNPY2_Q9Y2B0_171_TDLCDHALHISHDEL (UniProt Q9Y2B0),-0.246,-0.0461
